Results are given in words; binding and its absence hold for the method and conditions named. Some binding calls cover weakened binding; strength is not graded here.

This assay deals with human MUC16 as expressed on MUC16+ cancer cell lines (OVCAR3, SKOV8, OVCA432) (human). The experiment in a line: FACS on MUC16+ OVCAR3 cells (FIG. 6 legend).

B1: anti-MUC16 clone 8 BsAb (Clone 8/anti-CD3 bispecific antibody) (bispecific antibody)
chain: DIQLTQSPSAVSASVGDRVTITCRASQDVSKWLAWYQQKPGKAPRLLISAASGLQSWVPSRFSGSGSGTEFTLSISSLQPEDFATYYCQQANSFPWTFGQGTKVEIKRSRGGGGSGGGGSGGGGSLEMAQVQLQQWGAGLLKPSETLSLTCAVYGGSFSGYYWSWIRQPPGKGLEWIGEINHSGSTNYNPSLKSRVTISVDTSKNQFSLKLSSVTAADTAVYYCARQSYITDSWGQGTLVTVSSTSGGGGSDVQLVQSGAEVKKPGASVKVSCKASGYTFTRYTMHWVRQAPGQGLEWIGYINPSRGYTNYADSVKGRFTITTDKSTSTAYMELSSLRSEDTATYYCARYYDDHYCLDYWGQGTTVTVSSGEGTSTGSGGSGGSGGADDIVLTQSPATLSLSPGERATLSCRASQSVSYMNWYQQKPGKAPKRWIYDTSKVASGVPARFSGSGSGTDYSLTINSLEAEDAATYYCQQWSSNPLTFGGGTKVEIKHHHHHH
notes: It was secreted from CHO cells; also called clone 8 bispecific antibody; anti-MUC16 clone & BsAb
Regarding B1, the binding entry is given as “binds”.

These data come from patent US20250361321A1 (Memorial Sloan Kettering, published 2025).
